One molecule from patent US11666558B2, “Methods of treating intraocular pressure with activators of Tie-2” (EyePoint Pharmaceuticals, Inc., priority 2015, dated 2023) can be followed below.

SMILES strings stand for the structures. This continues a long series; more values of the same kind are listed elsewhere.

Series [1] can be described thus: Plasma concentrations and pharmacokinetic parameters after topical ocular, subcutaneous and intravitreal administration. It counts as in vivo, New Zealand White rabbits. The note with it: intravitreal 2.5 mg/eye (~1.54 mg/kg), suspension; 1.0 hr. On the procedure: (§1) To measure the concentration of Compound 1 in plasma and ocular tissues following topical ocular, subcutaneous, and intravitreal administration, New Zealand White rabbits were administered Compound 1, and plasma and ocular samples were collected at pre-determined time points. Compound 1 formulations were prepared fresh on each day of dosing.
New Zealand White rabbits weighing 2.5 to 3.5 kg were used on this study. Rabbits were housed one per cage. Animals were not fasted and only healthy animals with no ocular illness were used. Two rabbits per group were sacrificed at each of four ocular tissue sampling time points for a total of eight rabbits per group. […]
Each blood sample was collected on Day 3 post dose at pre-determined time points from the rabbits via an ear vessel and placed into chilled polypropylene tubes containing sodium heparin as an anticoagulant. […]
An LC-MS/MS method was developed for the determination of Compound 1 in rabbit aqueous tissues (plasma, aqueous and vitreous humor) and solid ocular tissue samples. A pre-study standard curve was analyzed to determine the specificity, range, and lower limit of quantitation of the method. Plasma and tissue homogenate study samples were extracted and analyzed. […]
Pharmacokinetic parameters were calculated from the time course of the plasma concentration. […]

Series [2] in a line: Ocular tissue concentrations (aqueous humor, vitreous humor, iris, retina, choroid, cornea) after topical ocular, subcutaneous and intravitreal administration. It counts as in vivo, New Zealand White rabbits. The note with it: Group 5 intravitreal 2.5 mg per eye; 72 hr. On the procedure:
as §1
Ocular tissue samples from both eyes of each animal were collected and weights were recorded. Plasma and ocular tissue sample concentrations of Compound 1 were determined by LC-MS/MS.
New Zealand White rabbits weighing 2.5 to 3.5 kg were used on this study. Rabbits were housed one per cage. Animals were not fasted and only healthy animals with no ocular illness were used. Two rabbits per group were sacrificed at each of four ocular tissue sampling time points for a total of eight rabbits per group.
Animals were anesthetized for ocular (topical) and intravitreal dosing following the 12IA7 IACUC protocol. Each rabbit received a bolus dose of test formulation either via topical ocular administration 3 times daily on Days 1 and 2 (at 0, 6, and 12 hours), and once on Day 3 (at 0 hours) into both eyes; via intravitreal administration into both eyes once on Day 1 (at 0 hours); or via subcutaneous administration 2 times daily on Days 1 and 2 (at 0 and 8 hours) and once daily on Day 3 (at 0 hours). Doses were given within an approximately 1 hour window each day where applicable.
On Day 1, for intravitreal administration, or on Day 3, for topical ocular and subcutaneous administration, at the appropriate ocular tissue collection time points, animals were euthanized and both eyes were enucleated immediately. Following enucleation, each eye was rinsed with phosphate-buffered saline. Ocular tissue samples from both eyes of each animal were collected at predetermined time points and weights were recorded. All the samples were frozen immediately on dry ice, and stored at −60° C. to −80° C. pending bioanalysis.
An LC-MS/MS method was developed for the determination of Compound 1 in rabbit aqueous tissues (plasma, aqueous and vitreous humor) and solid ocular tissue samples. A pre-study standard curve was analyzed to determine the specificity, range, and lower limit of quantitation of the method. Plasma and tissue homogenate study samples were extracted and analyzed. All the samples were treated identically to the standards.
One eight-point standard curve was used in each analytical batch. To be accepted, each batch must have had at least five of eight standards with accuracy within ±20% of nominal, except at the lower limit of quantification (LLOQ), where ±25% was acceptable.
Concentration versus time data is plotted in FIGS. 3-16. All data are expressed as ng/g of the free drug. Samples that were below the limit of quantitation (0.2 ng/mL) were not used in the calculation of averages.

In the case of `COC(=O)N[C@@H](Cc1ccccc1)C(=O)N[C@@H](Cc1ccc(NS(=O)(=O)O)cc1)c1csc(-c2cccs2)n1` [Compound 1 free acid], in series [1], the “plasma Conc., individual rabbit” value stood at 16.0 ng/mL. The “vitreous humor Conc., individual eyes (OD, OS)” value in series [2] is 47700 ng/mL.
